Measurements taken from PubChem BioAssay AID2685 (National Center for Advancing Translational Sciences (NCATS), 2010).
This is one part of the list. The main result of the screen is listed elsewhere. These columns were measured beside it and carry no call. Most of these compounds were active or inconclusive in the main read-out, so they are no random draw. Potencies come from curve fits of mixed quality, noted in brackets.

Assay: qHTS Assay for Lipid Storage Modulators in Drosophila S3 Cells;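 for cell number change: cells counted by Cell Tracker Red CMTPX staining in the red channel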
Conditions: BODIPY lipid droplet fluorescence, 18-24 h; for cell number change: measured here: cell count max response, cells fed with added oleic acid
Procedure, shortened: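 Laser-scanning cytometry quantifies lipid droplet accumulation (500–530 nm total intensity; droplet/cell object ratio) in oleic acid-fed (400 uM added) Drosophila S3 cells treated with a concentration series. 20 uM Triacsin C defined 100% inhibition.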

[1] = measured here: cell number channel AC50, cells fed with added oleic acid
[2] = measured here: lipid fluorescence (Fed channel) AC50, cells fed with added oleic acid

SMILES | cell number change | AC50 [1] | AC50 [2]
Cc1ccc(NC(=O)CN(C)C(=O)CSc2nnc(NC(C)C)s2)cc1 | -50% | 2.06 µM [falling, full curve] | –
CCOc1ccc(-n2ccc(=O)c(C(=O)O)n2)cc1 | -17.2% | – | –
CC(=O)Nc1cn(-c2ccccc2)nc1-c1ccccc1 | 12.5% | – | 6.51 µM [falling, single point]
Cc1cccn2c(=O)c3cc(C(=O)NCC4CCCO4)c(=N)n(CCc4ccccc4)c3nc12 (centres undefined) | 5.13% | – | –
CCOc1ccc(Nc2nnc(Cc3ccc(OC)cc3)c(=O)[nH]2)cc1 | -1.59% | 0.291 µM [falling, full curve] | –
Cc1cc(C(=O)COC(=O)C23CC4CC(CC(O)(C4)C2)C3)c(C)n1-c1c(C)n(C)n(-c2ccccc2)c1=O | -0.137% | – | –
COCCn1cnnc1SCC(=O)Nc1ccccc1C(=O)Nc1ccc2c(c1)OCO2 | 27.5% | – | 10.3 µM [rising, partial curve, poor fit]
Cc1ccc(OCC(=O)NCCC2=CCCCC2)cc1 | – | – | 29.1 µM [falling, single point]
COc1ccc[nH]c1=O | 35.2% | – | 2.06 µM [falling, partial curve]
CCCCn1c(N)c(N(CC(C)C)C(=O)CN2C(=O)C3CCCCC3C2=O)c(=O)[nH]c1=O (centres undefined) | -50% | 2.06 µM [falling, partial curve, poor fit] | –
COc1ccc(/C=C/C(=O)c2ccc(NC(=O)c3cccs3)cc2)cc1OC | – | – | 18.4 µM [rising, single point]
COc1ccc(NC(=O)CC2C(=O)N(c3ccc(Cl)cc3)C(=S)N2CCc2ccccn2)cc1 (centres undefined) | -38.7% | 29.1 µM [falling, single point] | –
Cc1cccn2cc(-c3ccc(F)cc3)nc12 | -4.95% | – | 29.1 µM [rising, single point]
CC(=O)NCCc1ccc(S(=O)(=O)Nc2cccnc2)cc1 | -62.8% | 29.1 µM [falling, single point] | 29.1 µM [falling, single point]
CCOC(=O)N1CCN(S(=O)(=O)c2ccc3c(c2)CC(C)N3C(C)=O)CC1 (centres undefined) | 20.2% | – | –
CC(C)c1cc(C(F)(F)F)n2nc(C(=O)O)cc2n1 | -5.7% | 4.11 µM [falling, partial curve] | 23.1 µM [falling, partial curve]
CC(C)OP(=O)(OC(C)C)C(O)c1ccc(N(C)C)cc1 (centres undefined) | -23.5% | 2.06 µM [rising, partial curve] | 14.6 µM [falling, single point]
O=C(Nc1ccon1)c1cccc(S(=O)(=O)N2CCCCCC2)c1 | – | – | 0.58 µM [falling, single point]
Cc1ccc(C(=O)C2=C(O)C(=O)N(c3ncccn3)C2c2cccc(Cl)c2)o1 (centres undefined) | 1.79% | – | –
COc1ccc(N(CC(=O)Nc2ccc(C)cn2)S(=O)(=O)c2c(C)nn(C)c2C)cc1 | 40.5% | 13 µM [rising, partial curve, poor fit] | 29.1 µM [rising, partial curve, poor fit]
O=S(=O)(/N=C(\c1ccc(Cl)cc1)N1CCOCC1)c1ccccc1 | -44.5% | 2.31 µM [falling, full curve] | 18.4 µM [falling, partial curve]
Cc1ccc(C)c(S(=O)(=O)N2CCN(C(=O)CN3C(=O)NC(C)(C)C3=O)CC2)c1 | 33.5% | 11.6 µM [rising, single point] | –
COC(=O)c1ccc(-c2ccc(CNCC(O)c3ccccc3)o2)cc1 (centres undefined) | 64.6% | 9.2 µM [rising, partial curve, poor fit] | 8.2 µM [rising, partial curve]
CN(C)C(CNC1CC(C)(C)NC(C)(C)C1)c1cccc(F)c1 (centres undefined) | -3.48% | – | 1.46 µM [falling, partial curve]
O=C1c2cccc3c(N4CCCCC4)ccc(c23)C(=O)N1c1ccc(O)cc1 | -96.3% | 0.291 µM [falling, partial curve] | 0.058 µM [falling, full curve]
N#Cc1ccccc1NC(=O)c1ccc2c(c1)OCCO2 | -3.95% | – | –
COc1ccc(N=C2SCC(=O)N2c2ccc(OC)cc2)cc1 | 46.1% | 23.1 µM [rising, single point] | 1.16 µM [rising, full curve, poor fit]
O=C(COC(=O)c1cc(-c2cccc3ccccc23)nc2ccccc12)NC1CCS(=O)(=O)C1 (centres undefined) | 4.2% | – | 0.326 µM [rising, full curve, poor fit]
COc1ccc(C(CC(=O)Nc2cc(OC)cc(OC)c2)n2cccc2)cc1 (centres undefined) | 0.475% | – | –
O=C(Nc1ccc(Cl)cc1)c1nc[nH]c1C(=O)N1CCc2ccccc2C1 | -30.1% | 29.1 µM [falling, single point] | 0.366 µM [falling, single point]

Record cards, as listed above:
`N#Cc1ccccc1NC(=O)c1ccc2c(c1)OCCO2` reads cell number change: -3.95%
`COc1ccc(N=C2SCC(=O)N2c2ccc(OC)cc2)cc1` reads cell number change: 46.1%; AC50 [1]: 23.1 µM [rising, single point]; AC50 [2]: 1.16 µM [rising, full curve, poor fit]
